Measurements as given in PubChem BioAssay AID540276 (National Center for Advancing Translational Sciences (NCATS), 2011).
The whole screen tested about 300,000 compounds, of which about 5,400 (1.8%) were called active. This list was built around the results that the source calls inconclusive (neither active nor inactive); the mix of calls is not that of the screen. The call rests on the fitted dose curve; tested in HEK293 cells. A potency beside an inconclusive call is a rough fit, not a confirmed value.

assay: qHTS for inhibitors of binding or entry into cells for Marburg Virus; conditions: Marburg virus pseudotyped entry inhibition, cell reporter; series mostly up to 37.8 µM
Potency means the concentration at half of the fitted maximal effect.

Compound | Potency
CCc1ccc2c(c1)c1nnc(NN)nc1n2C | inactive
O=C(Nc1nc(-c2ccc(S(=O)(=O)N3CCCC3)cc2)cs1)C1COc2ccccc2O1 (stereo unspecified) | inconclusive: 2.82 µM [inhibitor, partial curve, poor fit]
CC(/C=C1\SC(=S)N(C(C(=O)O)C(C)C)C1=O)=C\c1ccccc1 (stereo unspecified) | inactive
O=C(/C=C/c1cccc([N+](=O)[O-])c1)n1cnc2ccccc21 | inconclusive: 14.1 µM [inhibitor, partial curve, poor fit]
O=C(NCC(c1cccnc1)N1CCN(c2ccc(F)cc2)CC1)c1ccc(F)cc1 (stereo unspecified) | inconclusive: 10 µM [inhibitor, partial curve, poor fit]
CCCOc1ccc(/C=N/Nc2ccc(C(=O)O)cc2)c(OCCC)c1 | inactive
CC(=O)Nc1ccc(SCC(=O)O)cc1 | inconclusive: 31.6 µM [activator, single point]
COC(=O)c1cc2c(-c3ccccc3)cc3ccccn3c-2c1C(=O)OC | inconclusive: 31.6 µM [inhibitor, single point]
CCOC(=O)Cc1c(C)nc2c(-c3ccc(Cl)cc3)c[nH]n2c1=O | inconclusive: 12.6 µM [inhibitor, single point]
O=C1c2ccccc2-c2nnc(-c3ccccc3)cc21 | inconclusive: 3.55 µM [inhibitor, full curve, poor fit]
COc1ccccc1C(=O)NCC(=O)N/N=C/c1cn[nH]c1-c1ccccc1 | inconclusive: 11.2 µM [inhibitor, partial curve, poor fit]
Cc1ccccc1NC(=O)Cn1c(=O)n(CCCCCC(=O)NCc2ccc3c(c2)OCO3)c(=O)c2sccc21 | inactive
CC(=O)N1CCc2c(sc3c2c(=O)n(CCc2ccccc2)c(=O)n3Cc2ccc(F)cc2)C1 | inconclusive: 35.5 µM [inhibitor, single point]
Cn1cccc1/C=C1/C(=O)NC(=O)N(C(C)(C)C)C1=O | inactive
CC1CCCN(CCC(=O)c2ccc(Br)cc2)C1 (stereo unspecified) | inconclusive: 35.5 µM [inhibitor, single point]
CCN(CC)C(=O)CSc1nnc(-c2cc(-c3ccc(Cl)cc3)nc3ccccc23)o1 | inconclusive: 3.55 µM [inhibitor, partial curve, poor fit]
Nc1ccc(C(=O)NN2C(=O)[C@H](Cl)C2c2ccc(Cl)cc2)cc1 (stereo partly specified) | active: 8.91 µM
CCOC(=O)N1CCN(C(=O)CN(c2ccc(OC)c(OC)c2)S(C)(=O)=O)CC1 | inconclusive: 0.231 µM [inhibitor, single point]
COc1cc(NC(=NS(=O)(=O)c2ccccc2)c2ccccc2)ncn1 | inconclusive: 3.16 µM [activator, single point]
CCOC(=O)C1CCN(C(=O)CSc2ccc(Br)cc2)CC1 | inconclusive: 35.5 µM [activator, single point]
Cc1ccc(OCC(COCc2ccccc2)NC(C)C)cc1 (stereo unspecified) | inconclusive: 15.8 µM [inhibitor, partial curve, poor fit]
Cn1c(=O)c2nc(NCc3ccccc3)cnc2n(C)c1=O | inconclusive: 0.447 µM [activator, partial curve, poor fit]
COc1cc(/C=C/C(=O)O)cc(S(=O)(=O)Nc2ccccc2C(=O)NCc2ccco2)c1OC | inconclusive: 35.5 µM [activator, single point]
Cc1cccc(CSc2nnc(-c3cnccn3)n2C)c1 | inactive

Compound | Potency
CCCCC(=O)c1ccc(O)cc1 | inactive
COc1ccccc1-n1c(-c2ccc(F)cc2)coc1=O | inconclusive: 6.31 µM [inhibitor, single point]
C=CCN1C(=O)C(O)(CC(=O)c2ccc(-n3cccc3)cc2)c2ccccc21 (stereo unspecified) | inconclusive: 32.6 µM [inhibitor, single point]
CCOC(=O)c1[nH]c2c(c1-c1ccccc1)C(=O)CC(c1ccccc1)C2 (stereo unspecified) | inactive
O=C(NC1CC1)c1ccc2c(c1)C1C3CCC(C3)C1C(c1ccccc1)N2 (stereo unspecified) | inactive
COC(=O)C1=C(N)Oc2cc(C)n(CC3CCCO3)c(=O)c2C1c1ccc(Cl)cc1 (stereo unspecified) | inconclusive: 35.5 µM [inhibitor, single point]
COc1cccc(Nc2nc(NCC3CCCO3)c3ccccc3n2)c1 (stereo unspecified) | inconclusive: 25.1 µM [inhibitor, single point]
O=S(=O)(Nc1ccc(O)c(CN2CCCCC2)c1)c1ccccc1 | inconclusive: 7.94 µM [inhibitor, partial curve, poor fit]
COc1ccc(Cl)cc1S(=O)(=O)N1CCN(C(=O)c2cc(OC)c(OC)c(OC)c2)CC1 | inconclusive: 35.5 µM [inhibitor, single point]
CCC(c1nnnn1Cc1ccco1)N(CCc1ccccc1)Cc1cc2cccc(C)c2[nH]c1=O (stereo unspecified) | inconclusive: 10 µM [inhibitor, partial curve, poor fit]
O=C(c1ccc(Cl)cc1)c1cnc(-c2ccccc2)s1 | inactive
CC[C@H](CO)Nc1nc(NCc2ccccc2)c2ncn(C(C)C)c2n1 | inconclusive: 35.5 µM [inhibitor, partial curve, poor fit]
O=C(c1ccc(S(=O)(=O)N2CCC(c3nc4ccccc4s3)CC2)cc1)N1CCOCC1 | inconclusive: 8.2 µM [inhibitor, partial curve]
COc1ccccc1NC(=O)C1=C(C)NC(SCC(=O)c2ccccc2)=C(C#N)C1c1ccco1 (stereo unspecified) | inconclusive: 12.6 µM [inhibitor, single point]
CN(C)CCCNC(=O)C(=O)NCC(c1cccs1)S(=O)(=O)c1ccc(F)cc1 (stereo unspecified) | inactive
O=C1/C(=C/c2ccc(F)cc2)SC(=S)N1NS(=O)(=O)c1ccccc1 | inconclusive: 14.1 µM [activator, single point]
CC(=O)C1=C(O)C(=O)N(Cc2ccccc2)C1c1ccccc1F (stereo unspecified) | inconclusive: 1.26 µM [activator, single point]
CN/C=C1\C(=O)C(C)(C)Oc2ccc3ccc(=O)oc3c21 | inactive
O=C(NCCNc1ccc([N+](=O)[O-])cc1)c1ccccc1Br | inconclusive: 18.3 µM [inhibitor, partial curve, poor fit]
c1cncc(-c2nc3ccccc3[nH]2)c1 | inconclusive: 5.01 µM [activator, partial curve]
COc1ccc(CC(=O)NC(C)c2nnc(SCc3nc4ccccc4c(=O)[nH]3)n2C)cc1 (stereo unspecified) | inactive
Nc1c2c(nc3ccccc13)CCCC2=O | inactive
COc1ccccc1N1CCN(S(=O)(=O)c2ccccc2)CC1 | inactive
CC(=O)NCc1c(Cl)cccc1-n1cccc1 | inactive

Compound | Potency
Cc1cc(C)nc(NNS(=O)(=O)c2ccc(Cl)cc2)n1 | inconclusive: 1.58 µM [activator, full curve, poor fit]
FC(F)(F)COc1ccc(-c2nnc(SCc3c(Cl)cccc3Cl)o2)cn1 | inactive
Cc1ccc(C(C(=O)NCc2ccco2)N(C(=O)CNC(=O)c2cccs2)c2c(C)cccc2C)cc1 (stereo unspecified) | inconclusive: 3.98 µM [inhibitor, single point]
O=C(CSc1ncnc2c1nnn2Cc1ccc(F)cc1)NC1CCCCC1 | inconclusive: 0.562 µM [inhibitor, full curve, poor fit]
CCOC(=O)CNC(=O)C1CCCc2c1[nH]c1ccc(Cl)cc21 (stereo unspecified) | inconclusive: 6.31 µM [inhibitor, single point]
Nc1ccccc1-c1nnc(SCC(=O)Nc2ccccc2OC(F)F)[nH]c1=O | inactive
CC(C)c1ccc(N(C(=O)c2ccco2)C(C(=O)NC2CCCC2)c2ccncc2)cc1 (stereo unspecified) | inconclusive: 11.2 µM [inhibitor, partial curve, poor fit]
CCOCc1cc(CN2CCC(n3nccc3NC(=O)C3CC3)CC2)ccc1OC | inconclusive: 25.1 µM [inhibitor, partial curve, poor fit]
COc1ccc(-c2noc(-c3cccs3)n2)cc1OC | inconclusive: 25.1 µM [inhibitor, single point]
CC(=O)Nc1ccc2c(c1)Cc1c-2cc(Br)c(N)c1Br | inconclusive: 0.794 µM [inhibitor, single point]
COc1ccc(/C=C/C(=O)O)cc1COc1cccc(C)c1 | inactive
O=C1N(c2ccccc2)C(c2cccnc2)N2CCCN12 (stereo unspecified) | inactive
Cc1ccc(C(=O)C(C)N2C(=O)NC(C)(c3ccccc3)C2=O)cc1 (stereo unspecified) | inactive
Cc1cccc(OCC(=O)Nc2ccc(S(=O)(=O)N3CCCC3)cc2)c1 | inactive
COc1ccc(CCC(=O)Nc2ncc(C)s2)cc1 | inactive
FC(F)(F)c1cccc(-c2nnc3ccc(C(F)(F)F)cn23)c1 | inactive
Cc1cccn2cc(-c3ccccc3)nc12 | inconclusive: 11.2 µM [inhibitor, partial curve, poor fit]
Cn1cc2ccc(N)cc2n1 | inactive
Cc1c(N=C2N=C(NC(=O)c3cccs3)c3ccccc32)c(=O)n(-c2ccccc2)n1C | inconclusive: 35.5 µM [inhibitor, single point]
COc1ccc(-n2nc(C(=O)NCC(=O)N3CC(C)CC(C)C3)c3ccccc3c2=O)c(OC)c1 (stereo unspecified) | inactive
O=C(O)CCN1C(=O)/C(=C/c2cn(-c3ccccc3)nc2-c2cccs2)SC1=S | inconclusive: 35.5 µM [inhibitor, single point]
O=C(Nc1ccccc1)c1ccc(=O)n(Cc2ccc(F)c(F)c2)c1 | inconclusive: 22.4 µM [inhibitor, partial curve, poor fit]
Nc1nc(NC(=O)c2ccccc2)nn1-c1ccccc1 | inconclusive: 6.51 µM [activator, single point]

Structures listed so far that contain a nitro group on carbon, in the order listed:
Compound | Potency
O=C(/C=C/c1cccc([N+](=O)[O-])c1)n1cnc2ccccc21 | inconclusive: 14.1 µM [inhibitor, partial curve, poor fit]
O=C(NCCNc1ccc([N+](=O)[O-])cc1)c1ccccc1Br | inconclusive: 18.3 µM [inhibitor, partial curve, poor fit]

Two entries picked at random from the list so far, as already listed:
Compound | Potency
COc1ccccc1-n1c(-c2ccc(F)cc2)coc1=O | inconclusive: 6.31 µM [inhibitor, single point]
CCOC(=O)Cc1c(C)nc2c(-c3ccc(Cl)cc3)c[nH]n2c1=O | inconclusive: 12.6 µM [inhibitor, single point]
